Test results as given in paper PMC9831654.
No constants are given. Whether binding was seen depends on the method and setting. In cells and extracts the contact can be indirect. A yes stands for co-enrichment or nearness to the bait. Other partners may have been found.

By UniProt entry, the sequences of proteins in these tests, tags left out.
UniProt P54652: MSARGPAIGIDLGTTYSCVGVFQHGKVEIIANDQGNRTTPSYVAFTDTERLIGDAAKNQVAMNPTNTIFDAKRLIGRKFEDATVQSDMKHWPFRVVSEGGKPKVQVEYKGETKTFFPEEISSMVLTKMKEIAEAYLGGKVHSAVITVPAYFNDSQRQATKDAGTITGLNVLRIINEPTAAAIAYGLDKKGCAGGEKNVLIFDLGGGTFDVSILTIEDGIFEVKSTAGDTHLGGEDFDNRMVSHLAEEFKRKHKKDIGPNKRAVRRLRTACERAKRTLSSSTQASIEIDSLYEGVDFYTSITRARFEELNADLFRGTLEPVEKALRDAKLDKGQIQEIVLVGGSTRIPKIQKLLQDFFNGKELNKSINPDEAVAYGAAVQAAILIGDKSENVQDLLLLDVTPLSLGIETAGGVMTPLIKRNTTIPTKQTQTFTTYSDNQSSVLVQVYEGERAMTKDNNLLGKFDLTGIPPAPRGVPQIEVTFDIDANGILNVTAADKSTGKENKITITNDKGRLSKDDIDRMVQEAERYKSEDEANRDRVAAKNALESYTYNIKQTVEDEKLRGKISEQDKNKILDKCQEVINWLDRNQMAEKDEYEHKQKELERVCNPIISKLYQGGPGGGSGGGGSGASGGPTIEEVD

Target: USP20 (bait of the co-immunoprecipitation analysed by mass spectrometry) (UniProt Q9Y2K6)
Assay: affinity purification with mass spectrometry; co-immunoprecipitation, gel pieces digested with trypsin, Q Exactive Plus; searched against the SwissProt human database; bait form and cells not stated

For “HSPA2 (hit of the mass spectrometry of the USP20 co-immunoprecipitate) (from UniProt P54652 1-639)”, the binding was “binds”.
